Data from publication PMC13080232.
These are yes or no findings as the source states them, for the method shown. In cells and extracts the contact can be indirect. Here binding means that the protein was enriched with, or labelled near, the bait; the list need not be complete. For part of these data: Tags and fused reporters may be left off the sequences shown.

T1: CD9:TurboID fusion protein (human), P21926
T1 chain: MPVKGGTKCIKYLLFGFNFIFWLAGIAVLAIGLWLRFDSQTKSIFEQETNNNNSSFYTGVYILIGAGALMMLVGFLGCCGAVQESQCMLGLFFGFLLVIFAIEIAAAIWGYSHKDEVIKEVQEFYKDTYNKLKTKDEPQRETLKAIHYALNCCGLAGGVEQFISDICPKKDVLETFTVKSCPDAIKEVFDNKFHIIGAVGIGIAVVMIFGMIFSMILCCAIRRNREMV


Tests used:
[1] = molecular target: CD9:TurboID fusion protein (human) (UniProt P21926); assay: proximity labelling; CD9:TurboID-V5 stably expressed in CD9-/- A549 cells; 50 μM biotin for 30, 60 or 240 min; cells uninfected or infected with N. meningitidis MC58 or S. aureus SH1000 (MOI = 50); RIPA lysis, streptavidin bead pull-down, on-bead digestion, LC-MS/MS with LFQ; enrichment against cytosolic TurboID (FDR 0.01, s0 = 2), infected against uninfected (FDR 0.05, s0 = 0.1)
[2] = molecular target: T1, CD9:TurboID fusion protein (human), …; assay: as above; settings: remark: other sources report otherwise

Binder	binding [1]	binding [2]
carboxypeptidase D (protein, UniProt O75976 32-1380) AHIKKAEATTTTTSAGAEAAEGQFDRYYHEEELESALREAAAAGLPGLARLFSIGRSVEGRPLWVLRLTAGLGSLIPEGDAGPDAAGPDAAGPLLPGRPQVKLVGNMHGDETVSRQVLIYLARELAAGYRRGDPRLVRLLNTTDVYLLPSLNPDGFERAREGDCGFGDGGPSGASGRDNSRGRDLNRSFPDQFSTGEPPALDEVPEVRALIEWIRRNKFVLSGNLHGGSVVASYPFDDSPEHKATGIYSKTSDDEVFKYLAKAYASNHPIMKTGEPHCPGDEDETFKDGITNGAHWYDVEGGMQDYNYVWANCFEITLELSCCKYPPASQLRQEWENNRESLITLIEKVHIGVKGFVKDSITGSGLENATISVAGINHNITTGRFGDFYRLLVPGTYNLTVVLTGYMPLTVTNVVVKEGPATEVDFSLRPTVTSVIPDTTEAVSTASTVAIPNILSGTSSSYQPIQPKDFHHHHFPDMEIFLRRFANEYPNITRLYSLGKSVESRELYVMEISDNPGVHEPGEPEFKYIGNMHGNEVVGRELLLNLIEYLCKNFGTDPEVTDLVHNTRIHLMPSMNPDGYEKSQEGDSISVIGRNNSNNFDLNRNFPDQFVQITDPTQPETIAVMSWMKSYPFVLSANLHGGSLVVNYPFDDDEQGLATYSKSPDDAVFQQIALSYSKENSQMFQGRPCKNMYPNEYFPHGITNGASWYNVPGGMQDWNYLQTNCFEVTIELGCVKYPLEKELPNFWEQNRRSLIQFMKQVHQGVRGFVLDATDGRGILNATISVAEINHPVTTYKTGDYWRLLVPGTYKITASARGYNPVTKNVTVKSEGAIQVNFTLVRSSTDSNNESKKGKGASSSTNDASDPTTKEFETLIKDLSAENGLESLMLRSSSNLALALYRYHSYKDLSEFLRGLVMNYPHITNLTNLGQSTEYRHIWSLEISNKPNVSEPEEPKIRFVAGIHGNAPVGTELLLALAEFLCLNYKKNPAVTQLVDRTRIVIVPSLNPDGRERAQEKDCTSKIGQTNARGKDLDTDFTNNASQPETKAIIENLIQKQDFSLSVALDGGSMLVTYPYDKPVQTVENKETLKHLASLYANNHPSMHMGQPSCPNKSDENIPGGVMRGAEWHSHLGSMKDYSVTYGHCPEITVYTSCCYFPSAARLPSLWADNKRSLLSMLVEVHKGVHGFVKDKTGKPISKAVIVLNEGIKVQTKEGGYFHVLLAPGVHNIIAIADGYQQQHSQVFVHHDAASSVVIVFDTDNRIFGLPRELVVTVSGATMSALILTACIIWCICSIKSNRHKDGFHRLRQHHDEYEDEIRMMSTGSKKSLLSHEFQDETDTEEETLYSSKH	binds	
NIPA like domain containing 4 (protein, UniProt Q0D2K0 1-404) MELRVSNTSCENGSLLHLYCSSQEVLCQIVNDLSPEVPSNATFHSWQERIRQNYGFYIGLGLAFLSSFLIGSSVILKKKGLLRLVATGATRAVDGGFGYLKDAMWWAGFLTMAAGEVANFGAYAFAPATVVTPLGALSVLISAILSSYFLRESLNLLGKLGCVICVAGSTVMVIHAPEEEKVTTIMEMASKMKDTGFIVFAVLLLVSCLILIFVIAPRYGQRNILIYIIICSVIGAFSVAAVKGLGITIKNFFQGLPVVRHPLPYILSLILALSLSTQVNFLNRALDIFNTSLVFPIYYVFFTTVVVTSSIILFKEWYSMSAVDIAGTLSGFVTIILGVFMLHAFKDLDISCASLPHMHKNPPPSPAPEPTVIRLEDKNVLVDNIELASTSSPEEKPKVFIIHS	binds	
G protein regulated inducer of neurite outgrowth 2 (protein, UniProt O60269 1-458) MSSSRPEPGPWAPLSPRLQPLSQSSSSLLGEGREQRPELRKTASSTVWQAQLGEASTRPQAPEEEGNPPESMKPARASGPKARPSAGGHWWSSTVGNVSTMGGSDLCRLRAPSAAAMQRSHSDLVRSTQMRGHSGARKASLSCSALGSSPVHRAQLQPGGTSGQGGQAPAGLERDLAPEDETSNSAWMLGASQLSVPPLDLGDTTAHSSSAQAEPKAAEQLATTTCHALPPAALLCGMREVRAGGCCHALPATGILAFPKLVASVSESGLQAQHGVKIHCRLSGGLPGHSHCCAHLWGPAGLVPEPGSRTKDVWTMTSANDLAPAEASPLSAQDAGVQAAPVAACKAVATSPSLEAPAALHVFPEVTLGSSLEEVPSPVRDVRWDAEGMTWEVYGAAVDLEVLGVAIQKHLEMQFEQLQRAPASEDSLSVEGRRGPLRAVMQSLRRPSCCGCSGAAPE	binds	
CD9:TurboID fusion protein, P21926 1-228 (protein) MPVKGGTKCIKYLLFGFNFIFWLAGIAVLAIGLWLRFDSQTKSIFEQETNNNNSSFYTGVYILIGAGALMMLVGFLGCCGAVQESQCMLGLFFGFLLVIFAIEIAAAIWGYSHKDEVIKEVQEFYKDTYNKLKTKDEPQRETLKAIHYALNCCGLAGGVEQFISDICPKKDVLETFTVKSCPDAIKEVFDNKFHIIGAVGIGIAVVMIFGMIFSMILCCAIRRNREMV		binds
CD151 (protein, UniProt P48509 1-253) MGEFNEKKTTCGTVCLKYLLFTYNCCFWLAGLAVMAVGIWTLALKSDYISLLASGTYLATAYILVVAGTVVMVTGVLGCCATFKERRNLLRLYFILLLIIFLLEIIAGILAYAYYQQLNTELKENLKDTMTKRYHQPGHEAVTSAVDQLQQEFHCCGSNNSQDWRDSEWIRSQEAGGRVVPDSCCKTVVALCGQRDHASNIYKVEGGCITKLETFIQEHLRVIGAVGIGIACVQVFGMIFTCCLYRSLKLEHY	binds	
immunoglobulin superfamily 3 (protein, UniProt O75054 20-1194) QRQVTVQEGPLYRTEGSHITIWCNVSGYQGPSEQNFQWSIYLPSSPEREVQIVSTMDSSFPYAIYTQRVRGGKIFIERVQGNSTLLHITDLQARDAGEYECHTPSTDKQYFGSYSAKMNLVVIPDSLQTTAMPQTLHRVEQDPLELTCEVASETIQHSHLSVAWLRQKVGEKPVEVISLSRDFMLHSSSEYAQRQSLGEVRLDKLGRTTFRLTIFHLQPSDQGEFYCEAAEWIQDPDGSWYAMTRKRSEGAVVNVQPTDKEFTVRLETEKRLHTVGEPVEFRCILEAQNVPDRYFAVSWAFNSSLIATMGPNAVPVLNSEFAHREARGQLKVAKESDSVFVLKIYHLRQEDSGKYNCRVTEREKTVTGEFIDKESKRPKNIPIIVLPLKSSISVEVASNASVILEGEDLRFSCSVRTAGRPQGRFSVIWQLVDRQNRRSNIMWLDRDGTVQPGSSYWERSSFGGVQMEQVQPNSFSLGIFNSRKEDEGQYECHVTEWVRAVDGEWQIVGERRASTPISITALEMGFAVTAISRTPGVTYSDSFDLQCIIKPHYPAWVPVSVTWRFQPVGTVEFHDLVTFTRDGGVQWGDRSSSFRTRTAIEKAESSNNVRLSISRASDTEAGKYQCVAELWRKNYNNTWTRLAERTSNLLEIRVLQPVTKLQVSKSKRTLTLVENKPIQLNCSVKSQTSQNSHFAVLWYVHKPSDADGKLILKTTHNSAFEYGTYAEEEGLRARLQFERHVSGGLFSLTVQRAEVSDSGSYYCHVEEWLLSPNYAWYKLAEEVSGRTEVTVKQPDSRLRLSQAQGNLSVLETRQVQLECVVLNRTSITSQLMVEWFVWKPNHPERETVARLSRDATFHYGEQAAKNNLKGRLHLESPSPGVYRLFIQNVAVQDSGTYSCHVEEWLPSPSGMWYKRAEDTAGQTALTVMRPDASLQVDTVVPNATVSEKAAFQLDCSIVSRSSQDSRFAVAWYSLRTKAGGKRSSPGLEEQEEEREEEEEEDDDDDDDPTERTALLSVGPDAVFGPEGSPWEGRLRFQRLSPVLYRLTVLQASPQDTGNYSCHVEEWLPSPQKEWYRLTEEESAPIGIRVLDTSPTLQSIICSNDALFYFVFFYPFPIFGILIITILLVRFKSRNSSKNSDGKNGVPLLWIKEPHLNYSPTCLEPPVLSIHPGAID	binds	
